Reference: publication PMC7819943, “Rice protein-binding microarrays: a tool to detect cis-acting elements near promoter regions in rice”
This is one part of the list.

biological target: T1, OsSMF1 (Oryza sativa, UniProt Q6ZLB0 1-436); experiment: protein-binding microarray (RPBM); PBS, 2% BSA, 51.3 ng/ul salmon testes DNA, 50 uM zinc acetate, 200 nM TF, 25 C, 1 h; high values mean tight binding; conditions: protein: recombinant; tags: N-terminal polyhistidine and DsRed monomer fusion (pET32a); chain copies: 2; label: CyDye5-dUTP incorporated in the synthesized complementary strand; 3' TTTTT single-stranded linker to array surface; dsDNA, one strand shown
T1 sequence: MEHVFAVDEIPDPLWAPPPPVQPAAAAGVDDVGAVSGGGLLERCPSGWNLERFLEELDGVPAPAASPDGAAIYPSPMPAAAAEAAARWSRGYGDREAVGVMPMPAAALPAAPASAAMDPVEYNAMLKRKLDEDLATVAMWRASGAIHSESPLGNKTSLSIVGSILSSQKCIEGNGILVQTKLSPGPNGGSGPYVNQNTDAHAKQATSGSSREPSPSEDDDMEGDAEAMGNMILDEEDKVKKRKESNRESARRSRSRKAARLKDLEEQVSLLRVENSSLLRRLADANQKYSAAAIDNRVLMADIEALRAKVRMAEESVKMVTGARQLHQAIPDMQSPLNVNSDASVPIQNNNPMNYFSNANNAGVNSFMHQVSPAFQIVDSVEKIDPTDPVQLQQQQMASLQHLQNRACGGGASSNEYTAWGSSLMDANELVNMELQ
In short: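 The binding signal for each feature is its fluorescence intensity in arbitrary units. An Axon 4000B scanner was used to read a custom Agilent array that had been made double-stranded with Cy5-dUTP primer extension, blocked with 2% BSA, incubated at 25 °C for 1 h with 200 nM protein in PBS, 2% BSA, salmon testes DNA and 50 µM zinc acetate, and washed. The protein was an N-terminal polyhistidine–DsRed transcription factor fusion from E. coli BL21-CodonPlus, purified on Ni–NTA.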

Going from “GCGTAACTGCCGGTGGCTTTGTCGCAGGCGGCCACGCGCCCGGAGTCACCTAGTGCAG” to “TGTTATTTAAGGAAGATAATCAAACTCACAATCAACGAACCGGAGTCACCTAGTGCAG”, the binding signal rises from 23500 fluorescence intensity (a.u.) to 27600 fluorescence intensity (a.u.).

Compared with “GCGATGCTACGTCAAGCTCGTTGCCACTCTTGCGTGAGGGCGGAGTCACCTAGTGCAG”, “GGAAGCGCACGTCGCCGCGTGGCGCGTGGCAAGCGGCGTCCGGAGTCACCTAGTGCAG” is higher in binding signal: 4310 fluorescence intensity (a.u.) for the first, 6750 fluorescence intensity (a.u.) for the second.

Going from “TTCCTTTTCTTGTTTATTGTGTTTGCATATCTGGACAAGTCGGAGTCACCTAGTGCAG” to “AGAGAGGGTGTTGTGAATTGGGAATTTCGGGATTATTGCTCGGAGTCACCTAGTGCAG”, the binding signal falls from 3240 fluorescence intensity (a.u.) to 3140 fluorescence intensity (a.u.).

Going from “CGACGCCTACCTCCTCCACCTCCTCATCCCGGCCTCCTCCCGGAGTCACCTAGTGCAG” to “TTTGTTGAATTCGGTCAAAGTTTATTCAAATCCAGTCAAACGGAGTCACCTAGTGCAG”, the binding signal falls from 5450 fluorescence intensity (a.u.) to 3320 fluorescence intensity (a.u.).

First: GTATGCAATTAATTAAGTACGTGGAAGCTTGTTTTCTGTACGGAGTCACCTAGTGCAG
Second: GTCACAACGAATAATCAATGGCCTCTCCTGCATCACCAAGCGGAGTCACCTAGTGCAG
The binding signal of the first is higher: 4630 fluorescence intensity (a.u.) for the first, 3660 fluorescence intensity (a.u.) for the second.

Going from “AATGCCTCAAATGCACAGTCTTCCTTCATATTATGTGGCACGGAGTCACCTAGTGCAG” to “CACTCCCTCATACACGATGTGTCATAGGTAAACAACAAATCGGAGTCACCTAGTGCAG”, the binding signal rises from 3960 fluorescence intensity (a.u.) to 4200 fluorescence intensity (a.u.).

Compared with “CTTTGGCCGAGTTGGCACCACCATCAGATTCAGGCCTTCGCGGAGTCACCTAGTGCAG”, “CTAGCTTCCTCCATTTCCTAGCTTCCTCACATGGGCTACCCGGAGTCACCTAGTGCAG” is higher in binding signal: 5520 fluorescence intensity (a.u.) for the first, 22400 fluorescence intensity (a.u.) for the second.

First: TCCGACTTGACTGCTATAAACTGATGACTCGTCGAAAAGCCGGAGTCACCTAGTGCAG
Second: TAGCCGGCCAGTCGAGTCGGAAACCCAGTTTGACACGGTTCGGAGTCACCTAGTGCAG
The binding signal of the first is higher: 5890 fluorescence intensity (a.u.) for the first, 3340 fluorescence intensity (a.u.) for the second.

Going from “TTTCAACAGATATTTTATTGTGACGTTGCAATTACTAAAACGGAGTCACCTAGTGCAG” to “CGCCAACGACGACGTGCGCACGCGTGGGCGCGCCCTTCTTCGGAGTCACCTAGTGCAG”, the binding signal falls from 4950 fluorescence intensity (a.u.) to 3700 fluorescence intensity (a.u.).

Going from “TCTACGGTTCTGCTTCAAGCAATTCAGCTAGTATCTCCATCGGAGTCACCTAGTGCAG” to “AATTTCATTGCTTCAGAGGTTTTATGATCCTGACGTAGGACGGAGTCACCTAGTGCAG”, the binding signal falls from 24700 fluorescence intensity (a.u.) to 6440 fluorescence intensity (a.u.).

First: TGATCTGTCTCCGTGTACACGTGGCCTCTGAAATTTACGCCGGAGTCACCTAGTGCAG
Second: GATCAATCCATCGAGGTGTGACGCGCCATCTCGCCGCTCGCGGAGTCACCTAGTGCAG
The binding signal of the first is higher: 17700 fluorescence intensity (a.u.) for the first, 3260 fluorescence intensity (a.u.) for the second.

First: AATCAGCGTGGGTCCCACCTGTCAATCTCAAACTTCCCTTCGGAGTCACCTAGTGCAG
Second: CAGCACAACCAGGCGATGCAAAATACTAAAGTTCCGGAGGCGGAGTCACCTAGTGCAG
The binding signal of the first is lower: 3850 fluorescence intensity (a.u.) for the first, 15000 fluorescence intensity (a.u.) for the second.

Compared with “CCGTGCGAGACTACGTGTCTTCGGCTGTGCCTGTTCGCGACGGAGTCACCTAGTGCAG”, “CTTCCCGTGGTCGACGTGGGCTATCACCGCCACGTTGCGGCGGAGTCACCTAGTGCAG” is lower in binding signal: 6600 fluorescence intensity (a.u.) for the first, 6390 fluorescence intensity (a.u.) for the second.

Going from “TTTAATTAAATATTATATATAATTGTTTTAAAGGAAAATGCGGAGTCACCTAGTGCAG” to “GGGCAGGGAAGGATCTTCGATAGGCTTTGATGAGCAGGGGCGGAGTCACCTAGTGCAG”, the binding signal falls from 11600 fluorescence intensity (a.u.) to 3330 fluorescence intensity (a.u.).

Going from “AGCCCAACTTCTACGGGCCGCACGTACGTGGCAATCTCGTCGGAGTCACCTAGTGCAG” to “CGGTGGTGCGCACAGATGTCTTCCTTGGTGTCACCACCCGCGGAGTCACCTAGTGCAG”, the binding signal falls from 13000 fluorescence intensity (a.u.) to 4380 fluorescence intensity (a.u.).

Going from “CAATCTGTCATCTCTTTACCAGTCTCATTGACATGTGGGCCGGAGTCACCTAGTGCAG” to “TATAAGAAACAAATCACTACCTCATGATGTAATTCTTTGGCGGAGTCACCTAGTGCAG”, the binding signal rises from 3270 fluorescence intensity (a.u.) to 28900 fluorescence intensity (a.u.).

Going from “CCCTGTTTACACTACTTGTGATTTGACTCATGCTGGACTTCGGAGTCACCTAGTGCAG” to “GAATCACAATTCTCGCTAACAACCTCCGCATTCCCCTGCGCGGAGTCACCTAGTGCAG”, the binding signal rises from 3470 fluorescence intensity (a.u.) to 10800 fluorescence intensity (a.u.).

First: GGGTCAAATTTCCACGTCAGCAAAACCAGGTGCCTATATTCGGAGTCACCTAGTGCAG
Second: CTTACTAGTATTGCATTTATGACGCGGCGCAACCTCCGATCGGAGTCACCTAGTGCAG
The binding signal of the first is higher: 14900 fluorescence intensity (a.u.) for the first, 7840 fluorescence intensity (a.u.) for the second.

First: ATGCACCACAGATTCCGTTCGTCACGCGCCCGTTCACACCCGGAGTCACCTAGTGCAG
Second: AGGATTGGACTGGCATTAGCTATGTCACTGGTAGATGGGACGGAGTCACCTAGTGCAG
The binding signal of the first is higher: 3590 fluorescence intensity (a.u.) for the first, 3510 fluorescence intensity (a.u.) for the second.

First: TTACCAGTACTAGCGCACTAAAGCATATACTGCCCTTTGCCGGAGTCACCTAGTGCAG
Second: ACGTATACGTTACGTACGTGTGGCCGTGCTTTAATCTCCCCGGAGTCACCTAGTGCAG
The binding signal of the first is higher: 12100 fluorescence intensity (a.u.) for the first, 4330 fluorescence intensity (a.u.) for the second.

First: CAATACATAACAATAACTTCATTGACACATAAACAAATGGCGGAGTCACCTAGTGCAG
Second: TGCTCTATCATACGAAATGTCACACTGTTTTGTGCGTGTTCGGAGTCACCTAGTGCAG
The binding signal of the first is higher: 3340 fluorescence intensity (a.u.) for the first, 3220 fluorescence intensity (a.u.) for the second.

Compared with “GAGGCCGAACGAGCGAGGCTGTGTCAGCACGTTGACACCTCGGAGTCACCTAGTGCAG”, “GACTCCTGAGGTGGTTATACGGATCGAGATAAACGTGCGACGGAGTCACCTAGTGCAG” is lower in binding signal: 5620 fluorescence intensity (a.u.) for the first, 4120 fluorescence intensity (a.u.) for the second.

Compared with “CGGGCGCCATGCCGTCAATCACACGCCATACAGATCAAACCGGAGTCACCTAGTGCAG”, “AACTTCTCGCGTGTCCTTCTCGTACTGGGCTGGGCTGGGCCGGAGTCACCTAGTGCAG” is higher in binding signal: 3460 fluorescence intensity (a.u.) for the first, 3840 fluorescence intensity (a.u.) for the second.

First: CAGGCTGACAGGTGGGTCCAGGTATAATCAGAGTCCACGTCGGAGTCACCTAGTGCAG
Second: GACGATCGAGCACCAAATCAGCAAGAGCGCCGTGACATTTCGGAGTCACCTAGTGCAG
The binding signal of the first is lower: 4330 fluorescence intensity (a.u.) for the first, 12600 fluorescence intensity (a.u.) for the second.

Going from “AACGCCCAGATCGATTCAGGCTGTGTCCCATACTCCCATACGGAGTCACCTAGTGCAG” to “GCACTTACGGGTGGTGATTGTAGTGTGCGTGTGTGTCTTTCGGAGTCACCTAGTGCAG”, the binding signal rises from 3540 fluorescence intensity (a.u.) to 3740 fluorescence intensity (a.u.).

Compared with “GTCGAGCTGGCACAAATATTCGCGTCAAGAGGGGTGAGACCGGAGTCACCTAGTGCAG”, “GGAGGTTCAAATTTAGATGAAATGATGAGGATGCTCTAAGCGGAGTCACCTAGTGCAG” is higher in binding signal: 3280 fluorescence intensity (a.u.) for the first, 3670 fluorescence intensity (a.u.) for the second.

Compared with “TTAATAAACTGACCGCATCACCCGCCGTACGTCGCCGTCGCGGAGTCACCTAGTGCAG”, “CCATTCCCCTAGTTTCCCCTCTCTTTTAGCCACCCTATCCCGGAGTCACCTAGTGCAG” is higher in binding signal: 3670 fluorescence intensity (a.u.) for the first, 4000 fluorescence intensity (a.u.) for the second.
